From article doi:10.1101/2021.11.19.469163
Like-named read-outs stand apart in the source and are kept apart here. No constants are given. Whether binding was seen depends on the method and setting. In cells and extracts the contact can be indirect.

Amino acid sequences for entries named in this document (tags omitted).
UniProt A8ISN6, whole entry: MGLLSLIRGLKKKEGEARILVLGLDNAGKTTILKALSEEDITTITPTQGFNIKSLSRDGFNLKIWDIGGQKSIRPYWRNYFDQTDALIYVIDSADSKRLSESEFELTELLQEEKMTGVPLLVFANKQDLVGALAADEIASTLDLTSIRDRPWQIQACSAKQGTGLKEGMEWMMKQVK
UniProt A8HYP5, whole entry: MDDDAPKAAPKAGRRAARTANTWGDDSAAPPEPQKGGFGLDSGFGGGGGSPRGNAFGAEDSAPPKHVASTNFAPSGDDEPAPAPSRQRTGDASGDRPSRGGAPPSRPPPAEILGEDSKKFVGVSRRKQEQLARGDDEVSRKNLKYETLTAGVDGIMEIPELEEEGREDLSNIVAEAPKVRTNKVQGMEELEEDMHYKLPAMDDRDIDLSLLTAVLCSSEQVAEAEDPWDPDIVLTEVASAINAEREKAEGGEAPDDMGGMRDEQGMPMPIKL

B1: IFT139 (protein, UniProt A9XPA6 1-1355)
chain: MADRVLALVHYYAREGYFRHVQTVCNEVLKKRPGDGVLTFWRAYGLLMEGNTADAMRDLSSIQGNSDLELAVAAAQLLGHESAKVPDHDAIIDLQAKLEIEERTASDQPCLHLASFYLYTKSKERARGLVERVLRNQPDMVPAQVLLGWIIISQQQDDEYDMLFDESELDDALSHFEQAVEHDHNDLEALLGKAKIMELKKQLGPCLDVLTEINVRFGWFVPALVEKTRMLMMLGDWEQVTETLQRVLAADQQNIMAQAWNCMISLTREGNNKQAAKQLQDLFSSMNRQEPKNAELFFRVARPFGRLACSDPTLLGITYLMADRAAQLRPEMAAYVVEAAAQKLMMDETTNATERFTQALQLDELNLEANAGALEAQIMAGELEEAAGQIMFLEDMFTNAAAAGGGKRKGRGTGDMDDDPDMADPSLGTSSDNPTLLYLKGLLAWKQGMPSEGLGLLERSIAALFSAAADFHGPSLELYAALNPARITAVVRLLLQSIGGEPRAPTEAPSPLISKVTRALDLLNKQAPALQESALLHARALYLNGNLDGALRKAGEILRMNPEESSAHLLICSVYVAQDKPELAVSALDQAVSSNFAIRETPLYHVVQAKVLVANNKLDDAKRVLESAMNLPGVRTALTVQQRARLGRKVVEPTLHERATVYLLLADVLARQSKIPDAPEAKKYIQDAIREFEGTSEEVRVTVADCELAIARGDVEGALKKLRRIPKESPHYVKARMAMADIYLRHRKDKAAYIKCYMDLVDHTPDYDSYCMLGEAFMQIQEPEKAVRAFESALEFSPKDVDLITRCARALVTSHDYQRAIDYYTKAIANARGGAQHALQLELGNLLVRLRQYPAATAAINKALERNRDGLPATENLQLDVEAWSMLAKVHKGKLEMEGYSQAQSRALELQKQLLLKLRGELPEAVALQRERTAAICFDLAEQSKRARQFDRAMELYMEALRHHDTHVPSMLAVAKLHLANGDTDACQAQCVTLLKHDPDNEEASIMLAELMFHKEHYDTAIYHFQQLLERSPNHYGALAQLILLLRRAGRLEDVPRYFALAEAGSPKAVMDPGYHYCKGIYNRYINNPREALKELNLARKDTRWGSQAILHMVEIYLNPDNDAVWEEKENADTPESRQAVATARSLLKQVRGADTTTQRYRVLESYAIMAGKDKNEIEASLNVLLDLANQDPNNVPVLLAMATGFMMLKQTPKARNQLKRVQKIQYKPDEAEEFERSWLLLADIHIQGGKYDLAQDLCQKCLKYNKSCAKAWEIMGQIMEREQAYKDAADHYENAWKHENQASAQVGFKLAFNYLKARRYVEAVDVCHKVIKAFPDYPKIRKEILEKARMGLKP
B2: IFT57 (protein, UniProt Q2XQY7 1-469)
chain: MSSKRGGRSSLAKAPEEAVNGEAFAPEASPPPPGDDGDAGGEDGGAPAPPPPPATKGGPVAVGRSLEIQTTPDVCMEMLADKLKLLNYEADFCRKKKPYRKPLSRLYFAVPLANSSEQFFYFTSLATWLLGLAGVELPAPKEFDDPNLTCQNILGAVKKLGFAPPSYHPTKLTVGNGKEVVGVLDGLVDFVLERRHHKYSRPAYGNDGQPEEGVQLDDEAEAAAMEGADELAMPAQNQADDDEEEEGVYVDPGRGDAAGPGTGASAAMDAEKAVLVSKVDPTLWKIELERVAPKLRITIAADSKDWRSHLDEAHQHKEVISKAWPDSKTSLERLRADLNGTLEKLQTREKFLNEQFESLMQQYRAARTTFTDVQETYNRKTEAVADRNQEMHRIGETLEEVKAMMDEKGSNIADATPVARIKTAIKQLNKELHDMEVRIGVVSHTLLQLSLRNKRLLQAQAALSDEEED

What was measured:
[1] = molecular target: ARL3::HA::YFP (C. reinhardtii) (UniProt A8ISN6); test: co-IP
[2] = molecular target: ARL3::HA::YFP (C. reinhardtii) (UniProt A8ISN6); test: co-IP; remark: listed apart in the source

Molecule | binding [1] | binding [2]
IFT43 (from UniProt A8HYP5 1-272) | no binding | no binding
B1 | no binding | no binding
B2 | no binding | no binding
